Measurements published in publication PMC9750872, “Ras-mutant cancers are sensitive to small molecule inhibition of V-type ATPases in mice” (Nature biotechnology, 2022).
Counter-ions that a name gives are not always drawn. Like-named read-outs stand apart in the source and are kept apart here.

System: 12 human primary cell-based systems
Assay: BioMAP profiling and benchmarking against reference database

In the case of `CNCCC=C1c2ccccc2CCc2ccccc21` [Nortriptyline Hydrochloride], the “Z-Score vs UCSF_249C” value (target agent 30 uM) is reported as 13.441.
In the case of `O=c1[nH]cc(F)c(=O)[nH]1` [5-Fluorouracil], the “Z-Score vs UCSF_249C” value (target agent 90 uM) is reported as 12.505.
For Bleomycin Sulfate, the “Z-Score vs UCSF_249C” value (target agent 30 uM) was 12.593.
`Cl.Fc1ccc([C@@H]2CCNC[C@H]2COc2ccc3c(c2)OCO3)cc1` [Paroxetine HCl] was tested, and the “Z-Score vs UCSF_249C” value (target agent 30 uM) was 13.113.
In the case of `CCN(CC)CCCC(C)Nc1c2ccc(Cl)cc2nc2ccc(OC)cc12` (stereo not shown) [Quinacrine, quinacrine], the “Z-Score vs UCSF_249C” value (target agent 3.3 uM) is reported as 13.764.
In the case of `COc1ccc(CCN(C)CCCC(C#N)(c2ccc(OC)c(OC)c2)C(C)C)cc1OC` (stereo not shown) [Verapamil], the “Z-Score vs UCSF_249C” value is reported as 12.312.
For `C/C=C/[C@H]1O[C@@](O)([C@@H](C)[C@H](O)[C@H](C)[C@H]2OC(=O)/C(OC)=C/C(C)=C/[C@@H](C)[C@@H](O)[C@@H](CC)[C@@H](O)[C@H](C)C/C(C)=C/C=C/[C@@H]2OC)C[C@@H](O[C@H]2C[C@@H](O)[C@H](OC(N)=O)[C@@H](C)O2)[C@@H]1C` [Concanamycin A], the “Z-Score vs UCSF_249C” value (target agent 140 pM) was 14.564, the “Z-Score vs UCSF_249C” value (target agent 410 pM) was 18.096 and the “Z-Score vs UCSF_249C” value (target agent 1.2 nM) was 18.096. The “Z-Score vs UCSF_249C” value (target agent 3.7 nM) was 19.138, the “Z-Score vs UCSF_249C” value (target agent 11 nM) was 16.752 and the “Z-Score vs UCSF_249C” value (target agent 33 nM) was 18.893. The “Z-Score vs UCSF_249C” value (target agent 100 nM) was 18.373.
For `CC(C)(N)C(=O)N[C@H](COCc1ccccc1)C(=O)N1CCC2(CC1)CN(S(C)(=O)=O)c1ccccc12` [MK-0677], the “Z-Score vs UCSF_249C” value (target agent 30 uM) was 13.217.
`CC[C@H]1OC(=O)[C@H](C)[C@@H](O[C@H]2C[C@@](C)(OC)[C@@H](O)[C@H](C)O2)[C@H](C)[C@@H](O[C@@H]2O[C@H](C)C[C@H](N(C)C)[C@H]2O)[C@](C)(O)C[C@@H](C)CN(C)[C@H](C)[C@@H](O)[C@]1(C)O` [Azithromycin] was tested, and the “Z-Score vs UCSF_249C” value (target agent 100 uM) was 12.047.
In the case of `COc1cc2nc(-c3ccc(N4CCN(C)CC4)cc3)nc(NCCN3CCOCC3)c2cc1OC` [CPG 52364], the “Z-Score vs UCSF_249C” value (target agent 3.3 uM) is reported as 14.469.
`CCCCCCCCc1ccc(CCC(N)(CO)CO)cc1` [FTY720] was tested, and the “Z-Score vs UCSF_249C” value (target agent 3.3 uM) was 13.156.
With `Nc1ccc(C(=O)Nc2cccc(-c3nc(N4CCOCC4)c4oc5ncccc5c4n3)c2)cn1` [YM-201636] the “Z-Score vs UCSF_249C” value (target agent 1.1 uM) was 12.478 and the “Z-Score vs UCSF_249C” value (target agent 3.3 uM) was 15.123.
With `C=C(C)[C@H]1Cc2c(ccc3c2O[C@@H]2COc4cc(OC)c(OC)cc4[C@@H]2C3=O)O1` [Rotenone] the “Z-Score vs UCSF_249C” value (target agent 3.3 uM) was 13.895 and the “Z-Score vs UCSF_249C” value (target agent 10 uM) was 12.936.
With `CN(C(=O)CN(CCO)CC(=O)N(C)C(C)(C)Cc1ccccc1)C(C)(C)Cc1ccccc1` [Oxethazaine] the “Z-Score vs UCSF_249C” value (target agent 10 uM) was 14.875.
In the case of `COc1ccc(CCN2CCC(Nc3nc4ccccc4n3Cc3ccc(F)cc3)CC2)cc1` [Astemizole], the “Z-Score vs UCSF_249C” value (target agent 5.6 uM) is reported as 11.765.
With `O=[N+]([O-])c1ccc(O)c2ncccc12` [8-Hydroxy-5-nitroquinoline] the “Z-Score vs UCSF_249C” value (target agent 10 uM) was 13.184 and the “Z-Score vs UCSF_249C” value (target agent 30 uM) was 13.492.
With `C/C(O)=C(\C#N)C(=O)Nc1ccc(C(F)(F)F)cc1` [Compound A771726] the “Z-Score vs UCSF_249C” value (target agent 50 uM) was 11.7.
`COc1cc2c(cc1O)CC[C@@H]1[C@@H]2CC[C@]2(C)[C@@H](O)CC[C@@H]12` [2-Methoxyestradiol] was tested, and the “Z-Score vs UCSF_249C” value (target agent 10 uM) was 11.372.
For `CC[C@@H]([C@H](C)O)n1ncn(-c2ccc(N3CCN(c4ccc(OC[C@@H]5CO[C@@](Cn6cncn6)(c6ccc(F)cc6F)C5)cc4)CC3)cc2)c1=O` [Posaconazole], the “Z-Score vs UCSF_249C” value (target agent 10 uM) was 13.495 and the “Z-Score vs UCSF_249C” value (target agent 30 uM) was 12.067.
`C=C[C@]1(C)C[C@@H](OC(=O)CSC(C)(C)CNC(=O)[C@H](N)C(C)C)[C@]2(C)[C@H](C)CC[C@]3(CCC(=O)[C@H]32)[C@@H](C)[C@@H]1O.Cl` [Valnemulin HCl] was tested, and the “Z-Score vs UCSF_249C” value (target agent 30 uM) was 13.254.
In the case of `CCCCC[C@H](O)/C=C/[C@H]1C(=O)C[C@H](O)[C@@H]1C/C=C\CCCC(=O)O` [Prostaglandin D2], the “Z-Score vs UCSF_249C” value (target agent 10 uM) is reported as 11.974.
`CC(C)CC[C@@H](O)[C@@H](C)[C@H]1CC[C@H]2[C@@H]3CC=C4C[C@@H](O)CC[C@]4(C)[C@H]3CC[C@]12C` [22(R)-Hydroxy Cholesterol] was tested, and the “Z-Score vs UCSF_249C” value (target agent 10 uM) was 12.27.
In the case of `COc1ccc(NC(=O)c2cc(OCCCN(C)C)nn2Cc2ccccc2)cc1.Cl` [CFM 1571 Hydrochloride], the “Z-Score vs UCSF_249C” value (target agent 30 uM) is reported as 14.001.
For `CCC(C)n1ncn(-c2ccc(N3CCN(c4ccc(OCC5COC(Cn6cncn6)(c6ccc(Cl)cc6Cl)O5)cc4)CC3)cc2)c1=O` (stereo not shown) [Itraconazole], the “Z-Score vs UCSF_249C” value (target agent 3.3 uM) was 12.183 and the “Z-Score vs UCSF_249C” value (target agent 10 uM) was 12.79.
`Nc1ccc(-c2ccc3ncc4ccc(=O)n(-c5cccc(C(F)(F)F)c5)c4c3c2)cn1` [Torin-2] was tested, and the “Z-Score vs UCSF_249C” value (target agent 12 nM) was 12.186.
With `CO/C1=C\C(C)=C\[C@@H](C)[C@@H](O)[C@@H](C)C/C(C)=C/C=C/[C@H](OC)[C@@H]([C@@H](C)[C@@H](O)[C@H](C)[C@@]2(O)C[C@@H](O)[C@H](C)[C@@H](C(C)C)O2)OC1=O` [Bafilomycin A1] the “Z-Score vs UCSF_249C” value (target agent 4.1 nM) was 19.849, the “Z-Score vs UCSF_249C” value (target agent 12 nM) was 21.738 and the “Z-Score vs UCSF_249C” value (target agent 37 nM) was 19.253. For the same compound, the “Z-Score vs UCSF_249C” value (target agent 110 nM) was 18.17 and the “Z-Score vs UCSF_249C” value (target agent 330 nM) was 17.81.
For `OC(c1ccc(-c2ccc(CN3CCN(Cc4ccncc4)CC3)cc2)c(F)c1)(C(F)(F)F)C(F)(F)F` [SR2211], the “Z-Score vs UCSF_249C” value (target agent 10 uM) was 15.302.
In the case of `CCN(CC)CCCC(C)Nc1ccnc2cc(Cl)ccc12` (stereo not shown) [Chloroquine, chloroquine], the “Z-Score vs UCSF_249C” value (target agent 30 uM) is reported as 13.832.
In the case of `CO[C@H]1C[C@@H]2CC[C@@H](C)[C@@](O)(O2)C(=O)C(=O)N2CCCC[C@H]2C(=O)O[C@H]([C@H](C)C[C@@H]2CC[C@@H](OCCO)[C@H](OC)C2)CC(=O)[C@H](C)/C=C(\C)[C@@H](O)[C@@H](OC)C(=O)[C@H](C)C[C@H](C)/C=C/C=C/C=C/1C` [Everolimus], the “Z-Score vs UCSF_249C” value (target agent 4.1 nM) is reported as 14.535, the “Z-Score vs UCSF_249C” value (target agent 37 nM) is reported as 14.898 and the “Z-Score vs UCSF_249C” value (target agent 330 nM) is reported as 15.044. For the same compound, the “Z-Score vs UCSF_249C” value (target agent 1.1 uM) was 14.557 and the “Z-Score vs UCSF_249C” value (target agent 3.3 uM) was 14.235.
With `CC(=O)O[C@H]1C(=O)[C@@]2(C)[C@H]([C@H](OC(=O)c3ccccc3)[C@]3(O)C[C@H](OC(=O)[C@H](O)[C@@H](NC(=O)c4ccccc4)c4ccccc4)C(C)=C1C3(C)C)[C@]1(OC(C)=O)CO[C@@H]1C[C@@H]2O` [Paclitaxel] the “Z-Score vs UCSF_249C” value (target agent 10 uM) was 11.49 and the “Z-Score vs UCSF_249C” value (target agent 30 uM) was 12.295.
With `CO[C@H]1C[C@@H]2CC[C@@H](C)[C@@](O)(O2)C(=O)C(=O)N2CCCC[C@H]2C(=O)O[C@H]([C@H](C)C[C@@H]2CC[C@@H](O)[C@H](OC)C2)CC(=O)[C@H](C)/C=C(\C)[C@@H](O)[C@@H](OC)C(=O)[C@H](C)C[C@H](C)/C=C/C=C/C=C/1C` [Rapamycin] the “Z-Score vs UCSF_249C” value (target agent 4.1 nM) was 13.838, the “Z-Score vs UCSF_249C” value (target agent 12 nM) was 14.246 and the “Z-Score vs UCSF_249C” value (target agent 37 nM) was 14.667. The “Z-Score vs UCSF_249C” value (target agent 110 nM) was 14.542, the “Z-Score vs UCSF_249C” value (target agent 330 nM) was 14.355 and the “Z-Score vs UCSF_249C” value (target agent 1 uM) was 14.447. For the same compound, the “Z-Score vs UCSF_249C” value (target agent 3 uM) was 14.478 and the “Z-Score vs UCSF_249C” value (target agent 9 uM) was 14.773.
With `CCC(=O)N1CCN(c2ccc(-n3c(=O)ccc4cnc5ccc(-c6cnc7ccccc7c6)cc5c43)cc2C(F)(F)F)CC1` [Torin, Torin1] the “Z-Score vs UCSF_249C” value (target agent 12 nM) was 12.435 and the “Z-Score vs UCSF_249C” value (target agent 37 nM) was 12.615.
`COc1ccc(/C=C\c2cc(OC)c(OC)c(OC)c2)cc1OP(=O)(O)O` [Fosbretabulin Disodium] was tested, and the “Z-Score vs UCSF_249C” value (target agent 41 nM) was 13.965, the “Z-Score vs UCSF_249C” value (target agent 120 nM) was 13.286 and the “Z-Score vs UCSF_249C” value (target agent 370 nM) was 11.987.
With `CC(C)c1c(C(=O)Nc2ccccc2)c(-c2ccccc2)c(-c2ccc(F)cc2)n1CC[C@@H](O)C[C@@H](O)CC(=O)O` [Atorvastatin Calcium (Lipitor), Atorvastatin Calcium] the “Z-Score vs UCSF_249C” value (target agent 10 uM) was 13.18.
With `O=S(=O)(NCCNC/C=C/c1ccc(Br)cc1)c1cccc2cnccc12` [Compound H-89, H-89] the “Z-Score vs UCSF_249C” value (target agent 10 uM) was 15.478.
`C[C@@H](Oc1cc(-n2cnc3ccc(CN4CCN(C)CC4)cc32)sc1C(N)=O)c1ccccc1C(F)(F)F` [GSK-461364A] was tested, and the “Z-Score vs UCSF_249C” value (target agent 1.1 uM) was 11.584 and the “Z-Score vs UCSF_249C” value (target agent 3.3 uM) was 12.399.
`CC1=C(/C=C/C(C)=C/C=C/C(C)=C/CO)C(C)(C)CCC1` [Retinol] was tested, and the “Z-Score vs UCSF_249C” value (target agent 30 uM) was 11.944.
`CN1CCN(C2=Nc3cc(Cl)ccc3Nc3ccccc32)CC1` [Clozapine] was tested, and the “Z-Score vs UCSF_249C” value (target agent 30 uM) was 12.077.
In the case of `CN1CCC(COc2cnc(-c3cccc(Cn4nc(-c5cccc(C#N)c5)ccc4=O)c3)nc2)CC1` [EMD-1214063], the “Z-Score vs UCSF_249C” value (target agent 10 uM) is reported as 11.72.
